Assay results taken from patent US11913944B2, “Photoaffinity probes” (Promega Corporation, priority 2019, dated 2024).
pIC50: −log10 of the molar value.

Test system: CRE reporter
Assay: cells
Conditions: Homo sapiens, PC-3, 6 h, read-out: IC50, inhibited expression of the CRE reporter
Method: Dasatinib is a broad kinase inhibitor targeting the BCR-ABL oncogenic pathway, thereby reducing the downstream activation of STAT5. K-562 cells transiently expressing a STAT5 reporter (2×10^5 cells/mL) were treated with serial dilution of dasatinib or a derivative having cleavable chloroalkane tag (+/−a PRG) for 24 hours and then tested for expression of the STAT5 reporter.

pIC50: 7.02
SMILES: CC(C)NCC(O)COc1cccc2ccccc12 (stereo not shown) [propranolol]
